The mice bore no tumour; each value counts animals alive of those treated. Counts of survivors are from the toxicity check (mostly the fifth day) where no day follows; animals may have died later. Schedule codes are those of the source, read here as Q, the interval in days (D) or hours (H), X, the number of doses. Some doses were run more than once; the results are listed from low to high.
Test system: B6D2F1 mice, nontumored toxicity test, survival
Test: NCI In Vivo Anticancer Drug Screen. Data for tumor model Nontumored Animals (Toxicity Test) in B6D2F1 (BDF1) mice

CCN(CC)CCNc1ccc(CO)c2sc3ccccc3c(=O)c12
survivor count (dose: 4.0 mg/kg/injection, schedule: Q01DX009 (ip), vehicle: saline): 8 of 8
survivor count (dose: 4.0 mg/kg/injection, schedule: Q03HX016 (ip), vehicle: saline): 8 of 8
survivor count (dose: 4.0 mg/kg/injection, schedule: Q03HX024 (ip), vehicle: saline): 8 of 8
survivor count (dose: 8.0 mg/kg/injection, schedule: Q01DX009 (ip), vehicle: saline): 8 of 8
survivor count (dose: 8.0 mg/kg/injection, schedule: Q03HX008 (ip), vehicle: saline): 8 of 8
survivor count (dose: 8.0 mg/kg/injection, schedule: Q03HX016 (ip), vehicle: saline): 8 of 8
survivor count (dose: 8.0 mg/kg/injection, schedule: Q03HX024 (ip), vehicle: saline): 8 of 8
survivor count (dose: 16.0 mg/kg/injection, schedule: Q01DX009 (ip), vehicle: saline): 8 of 8
survivor count (dose: 16.0 mg/kg/injection, schedule: Q01DX009 (sc), vehicle: saline): 8 of 8
survivor count (dose: 16.0 mg/kg/injection, schedule: Q03HX008 (ip), vehicle: saline): 7 of 7
survivor count (dose: 16.0 mg/kg/injection, schedule: Q03HX016 (ip), vehicle: saline): 8 of 8
survivor count (dose: 16.0 mg/kg/injection, schedule: Q03HX024 (ip), vehicle: saline): 8 of 8
survivor count (dose: 32.0 mg/kg/injection, schedule: Q01DX001 (ip), vehicle: saline): 8 of 8
survivor count (dose: 32.0 mg/kg/injection, schedule: Q01DX009 (ip), vehicle: saline): 8 of 8
survivor count (dose: 32.0 mg/kg/injection, schedule: Q01DX009 (oral), vehicle: saline): 8 of 8
survivor count (dose: 32.0 mg/kg/injection, schedule: Q01DX009 (sc), vehicle: saline): 8 of 8
survivor count (dose: 32.0 mg/kg/injection, schedule: Q03HX008 (ip), vehicle: saline): 8 of 8
survivor count (dose: 32.0 mg/kg/injection, schedule: Q03HX016 (ip), vehicle: saline): 8 of 8
survivor count (dose: 32.0 mg/kg/injection, schedule: Q03HX024 (ip), vehicle: saline): 7 of 8
survivor count (dose: 32.0 mg/kg/injection, schedule: Q04DX003 (ip), vehicle: saline): 8 of 8
survivor count (dose: 32.0 mg/kg/injection, schedule: Q08DX002 (ip), vehicle: saline): 8 of 8
survivor count (dose: 64.0 mg/kg/injection, schedule: Q01DX001 (ip), vehicle: saline): 8 of 8
survivor count (dose: 64.0 mg/kg/injection, schedule: Q01DX001 (sc), vehicle: saline): 8 of 8
survivor count (dose: 64.0 mg/kg/injection, schedule: Q01DX009 (ip), vehicle: saline): 8 of 8
survivor count (dose: 64.0 mg/kg/injection, schedule: Q01DX009 (oral), vehicle: saline): 8 of 8
survivor count (dose: 64.0 mg/kg/injection, schedule: Q01DX009 (sc), vehicle: saline): 8 of 8
survivor count (dose: 64.0 mg/kg/injection, schedule: Q03HX008 (ip), vehicle: saline): 8 of 8
survivor count (dose: 64.0 mg/kg/injection, schedule: Q03HX016 (ip), vehicle: saline): 7 of 8
survivor count (dose: 64.0 mg/kg/injection, schedule: Q03HX024 (ip), vehicle: saline): 8 of 8
survivor count (dose: 64.0 mg/kg/injection, schedule: Q04DX003 (ip), vehicle: saline): 8 of 8
survivor count (dose: 64.0 mg/kg/injection, schedule: Q08DX002 (ip), vehicle: saline): 8 of 8
survivor count (dose: 128.0 mg/kg/injection, schedule: Q01DX001 (ip), vehicle: saline): 8 of 8
survivor count (dose: 128.0 mg/kg/injection, schedule: Q01DX001 (sc), vehicle: saline): 8 of 8
survivor count (dose: 128.0 mg/kg/injection, schedule: Q01DX009 (ip), vehicle: saline): 8 of 8
survivor count (dose: 128.0 mg/kg/injection, schedule: Q01DX009 (oral), vehicle: saline): 8 of 8
survivor count (dose: 128.0 mg/kg/injection, schedule: Q01DX009 (sc), vehicle: saline): 8 of 8
survivor count (dose: 128.0 mg/kg/injection, schedule: Q03HX008 (ip), vehicle: saline): 0 of 8
survivor count (dose: 128.0 mg/kg/injection, schedule: Q03HX016 (ip), vehicle: saline): 1 of 8
survivor count (dose: 128.0 mg/kg/injection, schedule: Q04DX003 (ip), vehicle: saline): 8 of 8
survivor count (dose: 128.0 mg/kg/injection, schedule: Q08DX002 (ip), vehicle: saline): 8 of 8
survivor count (dose: 256.0 mg/kg/injection, schedule: Q01DX001 (ip), vehicle: saline): 7 of 8
survivor count (dose: 256.0 mg/kg/injection, schedule: Q01DX001 (oral), vehicle: saline): 8 of 8 and 9 of 9
survivor count (dose: 256.0 mg/kg/injection, schedule: Q01DX001 (sc), vehicle: saline): 2 of 8
survivor count (dose: 256.0 mg/kg/injection, schedule: Q01DX009 (oral), vehicle: saline): 7 of 8 and 8 of 8
survivor count (dose: 256.0 mg/kg/injection, schedule: Q01DX009 (sc), vehicle: saline): 5 of 8
survivor count (dose: 256.0 mg/kg/injection, schedule: Q04DX003 (ip), vehicle: saline): 5 of 8
survivor count (dose: 256.0 mg/kg/injection, schedule: Q08DX002 (ip), vehicle: saline): 6 of 8
survivor count (dose: 512.0 mg/kg/injection, schedule: Q01DX001 (ip), vehicle: saline): 0 of 8
survivor count (dose: 512.0 mg/kg/injection, schedule: Q01DX001 (oral), vehicle: saline): 7 of 8 and 10 of 10
survivor count (dose: 512.0 mg/kg/injection, schedule: Q01DX001 (sc), vehicle: saline): 0 of 8
survivor count (dose: 512.0 mg/kg/injection, schedule: Q01DX009 (oral), vehicle: saline): 3 of 8 and 5 of 8
survivor count (dose: 512.0 mg/kg/injection, schedule: Q04DX003 (ip), vehicle: saline): 1 of 8
survivor count (dose: 512.0 mg/kg/injection, schedule: Q08DX002 (ip), vehicle: saline): 1 of 8
survivor count (dose: 1024.0 mg/kg/injection, schedule: Q01DX001 (oral), vehicle: saline): 5 of 8 and 7 of 8
survivor count (dose: 1024.0 mg/kg/injection, schedule: Q01DX001 (sc), vehicle: saline): 0 of 8
survivor count (dose: 2048.0 mg/kg/injection, schedule: Q01DX001 (oral), vehicle: saline): 0 of 8 and 1 of 8

CN(C)/N=N/c1nc[nH]c1C(N)=O
survivor count (dose: 48.0 mg/kg/injection, schedule: Q01DX005 (ip), vehicle: Klucel (hydroxypropylcellulose) (HPC)): 4 of 4
survivor count (dose: 60.0 mg/kg/injection, schedule: Q01DX009 (ip), vehicle: distilled water + Tween-80): 5 of 5
survivor count (dose: 72.0 mg/kg/injection, schedule: Q01DX005 (ip), vehicle: Klucel (hydroxypropylcellulose) (HPC)): 4 of 4
survivor count (dose: 100.0 mg/kg/injection, schedule: Q01DX009 (ip), vehicle: distilled water + Tween-80): 5 of 5
survivor count (dose: 100.0 mg/kg/injection, schedule: Q04DX003 (ip), vehicle: saline with Tween-80): 4 of 4
survivor count (dose: 108.0 mg/kg/injection, schedule: Q01DX005 (ip), vehicle: Klucel (hydroxypropylcellulose) (HPC)): 4 of 4
survivor count (dose: 160.0 mg/kg/injection, schedule: Q01DX005 (ip), vehicle: Klucel (hydroxypropylcellulose) (HPC)): 4 of 4
survivor count (dose: 167.0 mg/kg/injection, schedule: Q01DX009 (ip), vehicle: distilled water + Tween-80): 5 of 5
survivor count (dose: 240.0 mg/kg/injection, schedule: Q01DX005 (ip), vehicle: Klucel (hydroxypropylcellulose) (HPC)): 4 of 4
survivor count (dose: 278.0 mg/kg/injection, schedule: Q01DX009 (ip), vehicle: distilled water + Tween-80): 3 of 4
survivor count (dose: 400.0 mg/kg/injection, schedule: Q04DX003 (ip), vehicle: saline with Tween-80): 4 of 4
survivor count (dose: 800.0 mg/kg/injection, schedule: Q04DX003 (ip), vehicle: saline with Tween-80): 0 of 2 and 4 of 4
